Assay results as given in article PMC9709245, “The stem region of α1,6-fucosyltransferase FUT8 is required for multimer formation but not catalytic activity” (The Journal of Biological Chemistry, 2022).
Results are given in words; binding and its absence hold for the method and conditions named. In cells and extracts the contact can be indirect. A result given as binding can be weak or reduced; the word gives no strength.

Target: T1, alpha-1,6-fucosyltransferase FUT8 WT (human, UniProt Q9BYC5 1-575)
T1 construct: No chain bears both Myc and 3xFLAG; also called Myc-FUT8; Myc-tagged FUT8; source: HEK293 FUT8KO, transfected, in lysate; not shown: Myc (copy from pcDNA6-mycHisA), C-terminal, kept; His tag (from the vector pcDNA6-mycHisA); 3xFLAG (other copy; from pME-3xFLAG), C-terminal, kept
T1 sequence (looked up): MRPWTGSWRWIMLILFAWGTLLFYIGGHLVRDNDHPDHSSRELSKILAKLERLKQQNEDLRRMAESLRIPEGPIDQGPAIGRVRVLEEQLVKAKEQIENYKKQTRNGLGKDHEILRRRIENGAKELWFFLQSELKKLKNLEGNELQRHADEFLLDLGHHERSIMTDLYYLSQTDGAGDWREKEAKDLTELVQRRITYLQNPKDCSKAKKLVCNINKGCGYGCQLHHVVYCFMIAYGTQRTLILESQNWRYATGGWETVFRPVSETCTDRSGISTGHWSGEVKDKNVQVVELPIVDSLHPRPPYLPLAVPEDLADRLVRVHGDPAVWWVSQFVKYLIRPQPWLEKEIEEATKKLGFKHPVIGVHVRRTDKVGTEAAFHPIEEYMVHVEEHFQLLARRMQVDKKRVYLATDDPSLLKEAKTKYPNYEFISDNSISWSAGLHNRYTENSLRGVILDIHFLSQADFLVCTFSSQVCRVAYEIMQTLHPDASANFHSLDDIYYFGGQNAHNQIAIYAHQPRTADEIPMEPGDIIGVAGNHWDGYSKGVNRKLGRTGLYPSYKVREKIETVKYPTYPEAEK
Assay: co-IP; lysates (TBS, 1% Triton X-100) of HEK293 FUT8KO cells coexpressing Myc-tagged FUT8 WT or mutant with 3xFLAG-FUT8 WT; anti-DYKDDDDK antibody magnetic beads, 4 °C overnight; anti-Myc blot; IP signal divided by input, relative to FUT8 WT

## FUT8ΔSH3 (from UniProt Q9BYC5) (enzyme)
  binding: binds
